Assay results taken from PubChem BioAssay AID2685 (National Center for Advancing Translational Sciences (NCATS), 2010).
The other results are listed elsewhere or left out. The main result of the screen is listed elsewhere. These columns were measured beside it and carry no call. Most of these compounds were active or inconclusive in the main read-out, so they are no random draw. Potencies come from curve fits of mixed quality, noted in brackets.

Experiment: qHTS Assay for Lipid Storage Modulators in Drosophila S3 Cells;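 as to cell number change: cells counted by Cell Tracker Red CMTPX staining in the red channel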
Details: BODIPY lipid droplet fluorescence, 18-24 h; for cell number change: measured here: cell count max response, cells fed with added oleic acid
Summary of the method: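 Laser-scanning cytometry quantifies lipid droplet accumulation (500–530 nm total intensity; droplet/cell object ratio) in oleic acid-fed (400 uM added) Drosophila S3 cells treated with a concentration series. 20 uM Triacsin C defined 100% inhibition.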

[1] = measured here: cell number channel AC50, cells fed with added oleic acid
[2] = measured here: lipid fluorescence (Fed channel) AC50, cells fed with added oleic acid

With `COc1cc(C(=O)N/N=C/c2cccc(Oc3ccccc3)c2)ccc1O` the cell number change was -4.95%, the AC50 [1] was 0.82 µM [falling, partial curve] and the AC50 [2] was 29.1 µM [falling, single point].

For `O=C(O)CC(CC(=O)O)c1ccsc1`, the cell number change was -3.39% and the AC50 [2] was 1.16 µM [rising, single point].

In the case of `Cc1ccc(CNC(=O)CSc2nccn(-c3ccc(C)c(F)c3)c2=O)cc1`, the AC50 [2] is reported as 18.4 µM [falling, partial curve].

For `CCNc1nc(NCC)n2c(SCC(=O)Nc3cc(Cl)ccc3OC)nnc2n1`, the AC50 [1] was 0.731 µM [rising, single point] and the AC50 [2] was 0.58 µM [rising, single point].

In the case of `C/C(=N\NC(=O)c1c(C)nc2ccccn12)c1ccc(C(C)(C)C)cc1`, the AC50 [2] is reported as 0.731 µM [rising, full curve].

With `c1ccc(-c2nc(-n3nc4ccccc4n3)nc3ccccc23)cc1` the cell number change was 6.01% and the AC50 [2] was 1.84 µM [rising, full curve, poor fit].

In the case of `CS(=O)(=O)N(Cc1ccc(C(=O)NN=C2CCCCCC2)cc1)c1ccccc1`, the cell number change is reported as 17.5% and the AC50 [2] is reported as 16.4 µM [rising, single point].

In the case of `O=C(Nc1ccccc1Cl)C1CCCN(S(=O)(=O)c2ccc(F)cc2)C1` (stereo not drawn), the cell number change is reported as -16.5% and the AC50 [2] is reported as 4.61 µM [rising, partial curve].

In the case of `COc1ccccc1C(=O)C1CCCN(C(=O)c2cnn(C(C)C)c2)C1` (stereo not drawn), the cell number change is reported as 10.5% and the AC50 [2] is reported as 29.1 µM [rising, single point].

With `CN(C)c1ccc(CNc2ncc(Br)cc2Br)cc1` the cell number change was 34.8%, the AC50 [1] was 0.461 µM [rising, full curve, poor fit] and the AC50 [2] was 4.61 µM [rising, single point].

`CCCCn1c(=O)c(-c2ccccc2)c(O)c2ccccc21` gave a cell number change of -9.68%.

In the case of `COc1ccc(N=C2SC(CC(=O)Nc3ccc(OC)cc3OC)C(=O)N2C)cc1` (stereo not drawn), the cell number change is reported as 2.36% and the AC50 [2] is reported as 16.4 µM [rising, single point].

In the case of `Cc1cc(C)n2nc3nc(N4CCCCC4)nc(-c4ccco4)c3c2n1`, the AC50 [1] is reported as 1.64 µM [rising, partial curve] and the AC50 [2] is reported as 0.206 µM [rising, full curve, poor fit].

With `CCOC(=O)c1ccc(NC(=O)c2nc(S(=O)(=O)Cc3ccccc3)ncc2Cl)cc1` the cell number change was 48.4%, the AC50 [1] was 6.51 µM [falling, single point] and the AC50 [2] was 6.51 µM [falling, single point].

For `Cc1ccc(S(=O)(=O)N(CCCO)Cc2cc3c(C)ccc(C)c3[nH]c2=O)cc1`, the cell number change was 45.6%, the AC50 [1] was 0.082 µM [rising, full curve] and the AC50 [2] was 0.092 µM [rising, full curve, poor fit].

In the case of `O=C(N/N=C/c1ccc(Cl)cc1Cl)c1cccc(F)c1`, the cell number change is reported as -9.06% and the AC50 [2] is reported as 9.2 µM [rising, partial curve].

With `O=C(NC1CCCCC1)c1ccc(CN2CCOCC2)cc1` the cell number change was -5.87% and the AC50 [2] was 0.146 µM [falling, single point].

With `Cc1ccc(Oc2ccc(-c3nc(N)nc(N)n3)cc2)cc1` the AC50 [1] was 3.26 µM [rising, single point].

With `Cc1cccc(C)c1NC(=O)CN(C)C(=O)c1cc(S(=O)(=O)N(C)C)ccc1N1CCCC1` the cell number change was 36.4% and the AC50 [1] was 29.1 µM [rising, single point].

In the case of `CCOC(=O)CN(C(=O)CSc1nnc(CNc2ccc(F)cc2)n1CC)c1ccc(F)cc1`, the cell number change is reported as 52.4% and the AC50 [1] is reported as 29.1 µM [rising, single point].

For `Cc1ccc(C(O)P(=O)(OCc2ccccc2)c2ccc(N(C)C)cc2)cc1` (stereo not drawn), the cell number change was -15% and the AC50 [2] was 11.6 µM [falling, partial curve].

In the case of `CCCCNC(=O)c1sc(=S)n(-c2ccccc2OC)c1N`, the cell number change is reported as 4.08%.

For `Cn1c(=O)oc2cc(S(=O)(=O)NCc3cccnc3)ccc21`, the cell number change was 28.8% and the AC50 [1] was 1.46 µM [rising, full curve, poor fit].

In the case of `Oc1ccc(-n2nnnc2SCc2ccccc2Br)cc1`, the cell number change is reported as -19.6% and the AC50 [2] is reported as 29.1 µM [falling, single point].

In the case of `COc1ccc(CCNC(=O)CN2CCN(c3ccccc3Cl)CC2)cc1`, the AC50 [1] is reported as 6.51 µM [rising, single point].

In the case of `O=C1NN(c2ccc(Cl)c(Cl)c2)C(=O)/C1=C/c1ccc(-c2ccccc2C(=O)O)o1`, the cell number change is reported as 1.42% and the AC50 [2] is reported as 6.51 µM [rising, partial curve].

With `N#C/C(=N/Nc1ccccc1[N+](=O)[O-])C(N)=S` the cell number change was 75%, the AC50 [1] was 9.2 µM [rising, partial curve, poor fit] and the AC50 [2] was 9.2 µM [rising, partial curve].

With `CCn1c(Cc2ccc(OC)cc2)nnc1SCC(=O)Nc1ccc(N2CCOCC2)cc1` the cell number change was -36.2% and the AC50 [1] was 0.00366 µM [falling, full curve, poor fit].

For `Cc1ccc(C)c(NC(=O)COc2cccc3c2CCN(Cc2ccccc2C)C3=O)c1`, the cell number change was 14.3%.

With `COc1ccc(C(=O)N2CCCN(C)CC2)cc1S(=O)(=O)N(C)Cc1ccccc1` the cell number change was -10.1% and the AC50 [2] was 2.59 µM [rising, full curve, poor fit].

Compound `O=C(CN1C(=O)COc2ccccc21)NC1CCCC1` has a cell number change of 12.5%.

With `c1ccc(C2c3[nH]c4ccccc4c3CCN2Cc2cccn2-c2ccccn2)nc1` (stereo not drawn) the cell number change was 9.12% and the AC50 [1] was 6.51 µM [rising, single point].

Work on `Cc1ccc2c(c1)c1c(n2CC(O)CNC2CCCCC2)CCCC1` (stereo not drawn) yielded a cell number change of -4.96%.

For `COc1ccc(CNC(=S)Nc2ccc(OC)cc2)cc1`, the cell number change was -6.11% and the AC50 [1] was 0.146 µM [falling, full curve, poor fit].

For `Cc1ccc2nc3ccc(N4CCCCCCC4)nn3c(=O)c2c1`, the cell number change was -23.2% and the AC50 [2] was 1.84 µM [rising, partial curve].

For `COCCCNS(=O)(=O)c1ccc2[nH]c3c(c2c1)CCCCC3`, the cell number change was 13.5% and the AC50 [2] was 32.6 µM [rising, partial curve, poor fit].

For `CCC(CC)C(=O)Nc1cccc(C(=O)c2ccccc2)c1`, the cell number change was 160% and the AC50 [1] was 18.4 µM [rising, single point].

With `COc1ccc(C(=O)CN2C3=NCCCN3c3ccccc32)cc1OC` the cell number change was 38%, the AC50 [1] was 0.0731 µM [rising, full curve] and the AC50 [2] was 0.0731 µM [rising, full curve].

Work on `COCCN1C(=O)Cc2c1nc(N)c1c(N)nc(N3CCN(c4ccc(F)cc4)CC3)c(C#N)c21` yielded a cell number change of 32.7%.

In the case of `CC1(c2nnc(Cc3ccccc3)o2)CC(c2ccccc2[N+](=O)[O-])=NO1` (stereo not drawn), the cell number change is reported as -32.9%, the AC50 [1] is reported as 11.6 µM [falling, partial curve] and the AC50 [2] is reported as 20.6 µM [falling, partial curve].

Compound `Cc1ccc(CCN2CC(C(=O)NCCCN3CCN(C)CC3)CC2=O)cc1` (stereo not drawn) has a cell number change of 6.04%.

In the case of `CCC(C)C(NC(=O)c1ccccc1NC(=O)c1ccccc1)C(=O)O` (stereo not drawn), the cell number change is reported as 22.9% and the AC50 [2] is reported as 5.8 µM [rising, full curve].

For `Cc1ccc(C(=O)O)cc1-c1ccc(/C=C2\SC(=O)N(CC(=O)Nc3ccccc3)C2=O)o1`, the cell number change was 31.2%, the AC50 [1] was 20.6 µM [rising, single point] and the AC50 [2] was 23.1 µM [rising, single point].

For `CCCn1nc(C(=O)NNC(=O)CSC(C)C(=O)Nc2cc(C)on2)c2ccccc2c1=O` (stereo not drawn), the AC50 [2] was 16.4 µM [rising, single point].

With `COc1ccccc1NC(=O)c1sc2nc(Cc3ccccc3)cc(C(F)(F)F)c2c1N` the cell number change was -28.7% and the AC50 [1] was 0.731 µM [rising, partial curve].

With `COc1c2occc2c(OC)c2c(=O)cc(C(F)(F)C(F)(F)F)oc12` the cell number change was -0.905%.

For `CC1Cc2nc(SCC(=O)NC3CCCCC3)n(C)c(=O)c2S1` (stereo not drawn), the AC50 [1] was 2.06 µM [rising, partial curve].

In the case of `CC(=O)Nc1cccc(NC(=O)C2CCCN2C(=O)Nc2ccc(C)cc2)c1` (stereo not drawn), the cell number change is reported as 4.84%.

With `CC(=O)Nc1ccc(S(=O)(=O)NCC2CCC(C(=O)NC(C)c3ccccc3)CC2)cc1` (stereo not drawn) the cell number change was -6.85% and the AC50 [2] was 6.51 µM [falling, partial curve, poor fit].

For `C=CCC1NS(=O)(=O)OC(CCc2ccccc2)C1O` (stereo not drawn), the cell number change was 11.7%.

In the case of `COCCN(Cc1ccccc1)C(=O)C1CCN(S(=O)(=O)c2ccc3c(c2)OCCO3)CC1`, the cell number change is reported as -23.5% and the AC50 [2] is reported as 6.51 µM [falling, full curve].

With `COc1ccc(S(=O)(=O)Nc2c(C(=O)O)[nH]c3ccccc23)c(OC)c1` the cell number change was -8.09% and the AC50 [2] was 4.11 µM [falling, single point].

With `COc1ccc(C)cc1S(=O)(=O)N1c2ccc(C)cc2C2CN(C)CCC21` (stereo not drawn) the AC50 [2] was 6.51 µM [rising, single point].

With `COc1ccc(/C(O)=C2/C(=O)C(=O)N(Cc3ccco3)C2c2cccs2)cc1` (stereo not drawn) the cell number change was -44.1%, the AC50 [1] was 0.00731 µM [falling, full curve, poor fit] and the AC50 [2] was 0.231 µM [falling, full curve].

In the case of `COc1cccc(C(=O)CC(C(=O)O)c2ccc(F)cc2)c1` (stereo not drawn), the cell number change is reported as 12.3% and the AC50 [2] is reported as 0.0058 µM [falling, full curve, poor fit].

For `CCC(C)n1c(SCC(=O)NC2CCCC2)nc2ccccc2c1=O` (stereo not drawn), the cell number change was 24.3%, the AC50 [1] was 0.461 µM [rising, full curve, poor fit] and the AC50 [2] was 0.461 µM [rising, full curve].

With `CSCCC(NC(=O)c1ccccc1Cl)C(=O)N1CC(C)OC(C)C1` (stereo not drawn) the cell number change was -22.6% and the AC50 [2] was 29.1 µM [falling, single point].

For `CSc1ccccc1NC(=S)Nc1ccccc1C(F)(F)F`, the AC50 [2] was 0.164 µM [falling, full curve, poor fit].

With `CCOP(=O)(OCC)/C(=N/OC(=O)c1ccccc1C)C(N)=O` the cell number change was 8.91% and the AC50 [1] was 6.51 µM [rising, single point].

`CN(Cc1ccc(F)cc1)C(=O)COc1ccc2ccccc2c1` showed a cell number change of 4.44%.

For `O=C(NCC1(c2ccccc2)CCCC1)C1(c2ccccc2)CCCC1`, the cell number change was -27.1% and the AC50 [2] was 6.51 µM [falling, partial curve, poor fit].
